In all, about 360,000 compounds went through this assay and about 7,500 (2.1%) were called active. Inconclusive means that the source gave no clear call. Such entries were picked first, then a sample of the others. Calls come from the whole dose curve; as a rule, active = well fitted inhibition curve with a large enough effect; inconclusive = small, poorly fitted or top-dose-only effect, or effect the other way; inactive = flat fitted curve, though single readings scatter. A potency beside an inconclusive call is a rough fit, not a confirmed value.
Assay: Nrf2 qHTS screen for inhibitors; note: nearly all actives have a fitted effect of over 60% in size
Details: A549 ARE-Fluc reporter, luciferase luminescence, 18-24 h; activity change, negative = inhibition: at 46 µM (top of the series)
Outline: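 Cells were seeded and rested 2 h, then exposed to compounds for 18-24 h. CellTiter-Fluor was read first as a viability measure. BugLite was added 15 min before the final luminescent read of ARE-luciferase activity in A549 cells.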
% is set by controls: 0 for no effect and ±100 for the full control effect; potency is the fitted concentration of half-maximal effect.

Row | Compound | Potency | activity change, negative = inhibition
1 | Cc1ccc(C(=O)Cc2ccccc2)cc1 | inconclusive: 25.9 µM [activator, single point] | –
2 | Cc1cc(-n2c(C)cc(C(=O)CSc3nc(N)cc(=O)[nH]3)c2C)no1 | inconclusive: 25.9 µM [falling, partial curve, poor fit] | –
3 | CCN1C[C@@H]2[C@@H]3C(=O)N(C)C(=O)[C@@H]3[C@](C)(C1=O)N2C(=O)c1ccccc1 | – | inactive: -7.53%
4 | COCCn1c(C)cc(C(=O)COC(=O)c2c(C)nn(Cc3ccccc3)c2C)c1C | inconclusive: 29.1 µM [falling, partial curve, poor fit] | –
5 | CCNC(=S)N(CCc1c(C)[nH]c2ccc(Cl)cc12)Cc1ccco1 | active: 20.6 µM | –
6 | Cc1ccc(N=Nc2ccc(O)c(/C=N\NC(=O)c3ccc(N)cc3)c2)cc1C | inconclusive: 0.92 µM [activator, full curve, poor fit] | –
7 | Cc1nnc2ccc(-c3cccc(NS(=O)(=O)c4cc(F)ccc4F)c3)nn12 | inconclusive: 29.1 µM [falling, single point] | –
8 | CCOC(=O)c1c(C)c(-c2ccccc2)n(CC(=O)Nc2ccc(OCC)cc2)c1C | – | inactive: 6.46%
9 | Cc1cccc(Nc2ncccc2C(=O)NCc2cccs2)c1C | inconclusive: 20.6 µM [falling, partial curve, poor fit] | –
10 | Nc1cc(=O)[nH]c(SCC(=O)Nc2ccc(S(=O)(=O)N3CCCC3)cc2)n1 | inconclusive: 32.6 µM [activator, partial curve, poor fit] | –
11 | C[C@H](NC(=O)c1[nH]cnc1C(=O)Nc1cccc(Cl)c1)c1ccccc1 | inconclusive: 6.51 µM [falling, single point] | –
12 | Nc1n[nH]c(N)c1N=Nc1ccc(Cl)cc1 | – | inactive: 28.8%
13 | CC(=O)OCCCNc1cc(SCc2ccco2)c2nonc2c1[N+](=O)[O-] | – | inactive: -2.34%
14 | COc1ccccc1-c1noc(-c2ccc(N3CCN(C)CC3)c([N+](=O)[O-])c2)n1 | – | inactive: 5.47%
15 | O=S(=O)(NCCC1=CCCCC1)c1cccc(S(=O)(=O)N2CCOCC2)c1 | inconclusive: 29.1 µM [falling, single point] | –
16 | Cc1ccc(NC(=O)c2cc(N3C(=O)C=CC3=O)ccc2N2CCOCC2)cc1 | inconclusive: 10.3 µM [falling, partial curve, poor fit] | –
17 | Cc1cc(NC(=O)COC(=O)c2cc(S(=O)(=O)N3CCOCC3)ccc2N2CCCCC2)no1 | inconclusive: 25.9 µM [activator, partial curve, poor fit] | –
18 | Cc1ccc(Cl)cc1N1CCN(C(=O)C2CCN(S(=O)(=O)Cc3ccccc3)CC2)CC1 | inconclusive: 20.6 µM [falling, single point] | –
19 | COC(=O)c1nn(-c2ccc3c(c2)OCO3)cc1O | inconclusive: 16.4 µM [activator, partial curve] | –
20 | COc1ccc2[nH]c(C(=O)Nc3ccccc3Cl)cc2c1 | inconclusive: 2.31 µM [activator, full curve, poor fit] | –
21 | O=c1[nH][nH]cc1C=Nc1ccc(Cl)cc1Cl | – | inactive: 4.99%
22 | Cc1ccc(S(=O)(=O)NC2(C(=O)O)CCCC2)cc1 | – | inactive: -1.16%

Copied from above, compounds 4 to 22
Row | Compound | Potency | activity change, negative = inhibition
4 | COCCn1c(C)cc(C(=O)COC(=O)c2c(C)nn(Cc3ccccc3)c2C)c1C | inconclusive: 29.1 µM [falling, partial curve, poor fit] | –
5 | CCNC(=S)N(CCc1c(C)[nH]c2ccc(Cl)cc12)Cc1ccco1 | active: 20.6 µM | –
6 | Cc1ccc(N=Nc2ccc(O)c(/C=N\NC(=O)c3ccc(N)cc3)c2)cc1C | inconclusive: 0.92 µM [activator, full curve, poor fit] | –
7 | Cc1nnc2ccc(-c3cccc(NS(=O)(=O)c4cc(F)ccc4F)c3)nn12 | inconclusive: 29.1 µM [falling, single point] | –
8 | CCOC(=O)c1c(C)c(-c2ccccc2)n(CC(=O)Nc2ccc(OCC)cc2)c1C | – | inactive: 6.46%
9 | Cc1cccc(Nc2ncccc2C(=O)NCc2cccs2)c1C | inconclusive: 20.6 µM [falling, partial curve, poor fit] | –
10 | Nc1cc(=O)[nH]c(SCC(=O)Nc2ccc(S(=O)(=O)N3CCCC3)cc2)n1 | inconclusive: 32.6 µM [activator, partial curve, poor fit] | –
11 | C[C@H](NC(=O)c1[nH]cnc1C(=O)Nc1cccc(Cl)c1)c1ccccc1 | inconclusive: 6.51 µM [falling, single point] | –
12 | Nc1n[nH]c(N)c1N=Nc1ccc(Cl)cc1 | – | inactive: 28.8%
13 | CC(=O)OCCCNc1cc(SCc2ccco2)c2nonc2c1[N+](=O)[O-] | – | inactive: -2.34%
14 | COc1ccccc1-c1noc(-c2ccc(N3CCN(C)CC3)c([N+](=O)[O-])c2)n1 | – | inactive: 5.47%
15 | O=S(=O)(NCCC1=CCCCC1)c1cccc(S(=O)(=O)N2CCOCC2)c1 | inconclusive: 29.1 µM [falling, single point] | –
16 | Cc1ccc(NC(=O)c2cc(N3C(=O)C=CC3=O)ccc2N2CCOCC2)cc1 | inconclusive: 10.3 µM [falling, partial curve, poor fit] | –
17 | Cc1cc(NC(=O)COC(=O)c2cc(S(=O)(=O)N3CCOCC3)ccc2N2CCCCC2)no1 | inconclusive: 25.9 µM [activator, partial curve, poor fit] | –
18 | Cc1ccc(Cl)cc1N1CCN(C(=O)C2CCN(S(=O)(=O)Cc3ccccc3)CC2)CC1 | inconclusive: 20.6 µM [falling, single point] | –
19 | COC(=O)c1nn(-c2ccc3c(c2)OCO3)cc1O | inconclusive: 16.4 µM [activator, partial curve] | –
20 | COc1ccc2[nH]c(C(=O)Nc3ccccc3Cl)cc2c1 | inconclusive: 2.31 µM [activator, full curve, poor fit] | –
21 | O=c1[nH][nH]cc1C=Nc1ccc(Cl)cc1Cl | – | inactive: 4.99%
22 | Cc1ccc(S(=O)(=O)NC2(C(=O)O)CCCC2)cc1 | – | inactive: -1.16%

(more compounds)

Row | Compound | Potency | activity change, negative = inhibition
23 | c1ccc(-c2csc3ncn4cnnc4c23)cc1 | inconclusive: 29.1 µM [falling, single point] | –
24 | C/C=C/C(=O)NCCc1ccc(OC)c(OC)c1 | inconclusive: 6.51 µM [activator, single point] | –
25 | CN(C(=O)c1cccc(NC(=O)Cc2ccc(NC(=O)C3CCN(C(=O)C4CC4)CC3)cc2)c1)C1CCCCC1 | – | inactive: 19.6%
26 | O=C1C=C(O)c2c(O)cc(O)c(O)c2C1=O | inconclusive: 18.4 µM [falling, single point] | –
27 | Cc1ccc(CNC(=O)CN2C(=O)CSc3ccc(S(=O)(=O)N(C)C)cc32)cc1 | inconclusive: 18.4 µM [activator, single point] | –
28 | COCCN(Cc1cc2cc3c(cc2nc1Cl)OCO3)C(=O)Nc1ccc(F)cc1 | active: 13 µM | –
29 | CC(C)NS(=O)(=O)c1ccc(OCC(=O)N2CCN(c3ccccc3)CC2)cc1 | inconclusive: 16.4 µM [falling, single point] | –
30 | Nc1ncc2c(n1)-c1cc(Cl)ccc1SC2 | inconclusive: 0.0046 µM [falling, full curve, poor fit] | –
31 | CCCCn1c(SCC(=O)N2CCCC2)nc2cc(S(N)(=O)=O)ccc21 | inconclusive: 18.4 µM [falling, partial curve, poor fit] | –
32 | Cc1ccnc(OC(C(=O)O)C(OCc2ccccc2)(c2ccccc2)c2ccc(C(F)(F)F)cc2)n1 (stereo not given) | active: 10.3 µM | –
33 | CC(=O)n1nc(-c2cccnc2)nc1NCc1ccc(F)cc1 | – | inactive: 8.29%
34 | CC(NC(=O)CCC(=O)N1CCN(S(=O)(=O)c2ccc(Cl)cc2)CC1)c1ccccc1 (stereo not given) | inconclusive: 20.6 µM [falling, single point] | –
35 | Cc1ccc(NC(=O)c2oc3ccccc3c2C)nc1 | inconclusive: 8.2 µM [activator, partial curve] | –
36 | OCCCn1c(C2CCCN2c2nc(-c3ccc(F)cc3)cs2)nc2cc(Cl)c(N3CCCCC3)cc21 (stereo not given) | inconclusive: 29.1 µM [falling, single point] | –
37 | CNC(=O)c1ccccc1Nc1ccc(SC(F)F)cc1 | inconclusive: 32.6 µM [falling, single point] | –
38 | Cc1ccsc1C(=O)OCc1nnc(-c2ccccc2)o1 | inconclusive: 23.1 µM [activator, single point] | –
39 | O=C(CNC(=O)c1ccccc1F)Nc1ccc2c(c1)CCC2 | inconclusive: 5.8 µM [activator, full curve, poor fit] | –
40 | N#CC1=C(C2CC2)CC(c2ccccc2)C(C#N)=C1N (stereo not given) | – | inactive: -14.4%
41 | COc1cccc(-c2nc3ccccc3c(=O)o2)c1 | – | inactive: 7.75%
42 | CCN(CC(=O)Nc1ccc(C(=O)Nc2ccc(OC)cc2)cc1)Cc1nc2ccccc2c(=O)[nH]1 | inconclusive: 29.1 µM [falling, single point] | –
43 | COc1ccc(NC(=S)N/N=C/c2cccn2Cc2ccccc2F)cc1 | inconclusive: 16.4 µM [falling, partial curve] | –
44 | CN(Cc1ccccc1)C(=O)c1cc2cc(F)ccc2[nH]1 | inconclusive: 29.1 µM [activator, single point] | –

Row | Compound | Potency | activity change, negative = inhibition
45 | COc1ccccc1C(=O)NCC1(c2ccccc2)CCCC1 | inconclusive: 16.4 µM [falling, partial curve, poor fit] | –
46 | COc1ccc(Br)cc1/C=N/Nc1cccc(C(=O)O)c1 | inconclusive: 7.31 µM [activator, partial curve, poor fit] | –
47 | Cc1ccc2nc(-c3ccc(NC(=O)CCN4C(=O)c5ccccc5C4=O)cc3)sc2c1 | inconclusive: 7.31 µM [activator, partial curve, poor fit] | –
48 | Cc1cc(Cl)c(S(=O)(=O)N2CCN(c3ccccn3)CC2)cc1OCC(=O)NC1CCCCC1 | inconclusive: 23.1 µM [falling, single point] | –
49 | CCC1Sc2ccc(S(=O)(=O)CCC(=O)Nc3ccc(NC(C)=O)cc3)cc2NC1=O (stereo not given) | – | inactive: 11%
50 | COc1ccc(CN2C(=O)CS/C2=N/N=C/c2cccs2)cc1 | inconclusive: 9.2 µM [falling, partial curve] | –
51 | CCCCN(CC)CCCNC(=S)Nc1ccc2nc3n(c(=O)c2c1)CCCCC3 | inconclusive: 6.51 µM [activator, single point] | –
52 | Cc1noc(NS(=O)(=O)c2ccc(NC(=O)CCn3c(=O)oc4ccccc43)cc2)c1C | inconclusive: 2.31 µM [falling, partial curve, poor fit] | –
53 | Cc1cc2c(cc1C)C(c1ccccc1OC(C)C)CC(=O)N2 (stereo not given) | inconclusive: 29.1 µM [falling, single point] | –
54 | Cc1cccc(OCCC(=O)Nc2ccc(C)c(S(=O)(=O)N3CCOCC3)c2)c1 | inconclusive: 25.9 µM [falling, single point] | –
55 | Cc1oc(-c2ccc(-c3ccccc3)cc2)nc1CN(C)C1CCOC1 (stereo not given) | inconclusive: 9.2 µM [activator, partial curve] | –
56 | c1ccc(Nc2nc(-c3ccncc3)cs2)nc1 | inconclusive: 0.411 µM [activator, full curve, poor fit] | –
57 | Cc1nn(C)c2c1c(-c1ccccc1)cc(=O)n2Cc1ccccc1C#N | – | inactive: -26.8%
58 | COc1ccc(C2=C(C)C(=NCCCN3CCN(c4cc(Cl)ccc4C)CC3)NS2(=O)=O)cc1 | inconclusive: 23.1 µM [falling, partial curve, poor fit] | –
59 | COc1ccc(Cn2cnc3c([N+](=O)[O-])c(C)c(C)cc32)cc1 | inconclusive: 7.31 µM [falling, partial curve] | –
60 | COc1ccc(-n2ncc(C(=O)Nc3ccc4c(c3)OCO4)c2C2CCN(C(=O)OC(C)(C)C)CC2)cc1 | inconclusive: 13 µM [falling, partial curve, poor fit] | –
61 | COc1ccc(S(=O)(=O)Nc2cc(Sc3ncn[nH]3)c(O)c3ccccc23)cc1 | inconclusive: 25.9 µM [falling, single point] | –
62 | Cc1ccc(S(=O)(=O)N(CC(=O)Nc2ccc(C)cc2C)C(=O)N2CCN(C)CC2)cc1 | – | inactive: 5.79%
63 | Clc1ccccc1-c1nc(-c2ccc(Br)o2)no1 | inconclusive: 1.3 µM [activator, partial curve, poor fit] | –
64 | CCC(=O)NC(=S)Nc1ccc(NC(=O)c2ccc(C)c([N+](=O)[O-])c2)cc1 | – | inactive: 2.93%
65 | CCOC(=O)c1c(C)[nH]c(C(=O)OCC(=O)Nc2ccc(OC)c(Cl)c2)c1C | inconclusive: 29.1 µM [falling, single point] | –

Source: PubChem BioAssay AID504444 (National Center for Advancing Translational Sciences (NCATS), 2011)
